One assay has as its target T1, HA-Flag-C16orf72 (UniProt Q14CZ0).
T1 sequence: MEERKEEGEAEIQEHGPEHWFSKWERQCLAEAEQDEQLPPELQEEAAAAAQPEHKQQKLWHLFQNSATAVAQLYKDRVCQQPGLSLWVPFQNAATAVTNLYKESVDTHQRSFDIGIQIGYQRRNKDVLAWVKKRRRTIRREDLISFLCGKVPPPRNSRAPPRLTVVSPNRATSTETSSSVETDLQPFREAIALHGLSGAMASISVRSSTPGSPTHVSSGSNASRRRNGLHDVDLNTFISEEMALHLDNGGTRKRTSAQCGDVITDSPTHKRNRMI
Nature of the assay: co-IP; c16orf72-HA-Flag immunoprecipitated with anti-HA beads from whole-cell extract of c16orf72Δ U2OS cells, untreated or 2 mM HU for 2 hours; Triton X-100 lysis buffer (100 mM NaCl, 50 mM Tris-HCl pH 8.0) with benzonase; western blot.

By UniProt entry, the sequences of proteins in these tests, tags left out.
UniProt Q7Z333: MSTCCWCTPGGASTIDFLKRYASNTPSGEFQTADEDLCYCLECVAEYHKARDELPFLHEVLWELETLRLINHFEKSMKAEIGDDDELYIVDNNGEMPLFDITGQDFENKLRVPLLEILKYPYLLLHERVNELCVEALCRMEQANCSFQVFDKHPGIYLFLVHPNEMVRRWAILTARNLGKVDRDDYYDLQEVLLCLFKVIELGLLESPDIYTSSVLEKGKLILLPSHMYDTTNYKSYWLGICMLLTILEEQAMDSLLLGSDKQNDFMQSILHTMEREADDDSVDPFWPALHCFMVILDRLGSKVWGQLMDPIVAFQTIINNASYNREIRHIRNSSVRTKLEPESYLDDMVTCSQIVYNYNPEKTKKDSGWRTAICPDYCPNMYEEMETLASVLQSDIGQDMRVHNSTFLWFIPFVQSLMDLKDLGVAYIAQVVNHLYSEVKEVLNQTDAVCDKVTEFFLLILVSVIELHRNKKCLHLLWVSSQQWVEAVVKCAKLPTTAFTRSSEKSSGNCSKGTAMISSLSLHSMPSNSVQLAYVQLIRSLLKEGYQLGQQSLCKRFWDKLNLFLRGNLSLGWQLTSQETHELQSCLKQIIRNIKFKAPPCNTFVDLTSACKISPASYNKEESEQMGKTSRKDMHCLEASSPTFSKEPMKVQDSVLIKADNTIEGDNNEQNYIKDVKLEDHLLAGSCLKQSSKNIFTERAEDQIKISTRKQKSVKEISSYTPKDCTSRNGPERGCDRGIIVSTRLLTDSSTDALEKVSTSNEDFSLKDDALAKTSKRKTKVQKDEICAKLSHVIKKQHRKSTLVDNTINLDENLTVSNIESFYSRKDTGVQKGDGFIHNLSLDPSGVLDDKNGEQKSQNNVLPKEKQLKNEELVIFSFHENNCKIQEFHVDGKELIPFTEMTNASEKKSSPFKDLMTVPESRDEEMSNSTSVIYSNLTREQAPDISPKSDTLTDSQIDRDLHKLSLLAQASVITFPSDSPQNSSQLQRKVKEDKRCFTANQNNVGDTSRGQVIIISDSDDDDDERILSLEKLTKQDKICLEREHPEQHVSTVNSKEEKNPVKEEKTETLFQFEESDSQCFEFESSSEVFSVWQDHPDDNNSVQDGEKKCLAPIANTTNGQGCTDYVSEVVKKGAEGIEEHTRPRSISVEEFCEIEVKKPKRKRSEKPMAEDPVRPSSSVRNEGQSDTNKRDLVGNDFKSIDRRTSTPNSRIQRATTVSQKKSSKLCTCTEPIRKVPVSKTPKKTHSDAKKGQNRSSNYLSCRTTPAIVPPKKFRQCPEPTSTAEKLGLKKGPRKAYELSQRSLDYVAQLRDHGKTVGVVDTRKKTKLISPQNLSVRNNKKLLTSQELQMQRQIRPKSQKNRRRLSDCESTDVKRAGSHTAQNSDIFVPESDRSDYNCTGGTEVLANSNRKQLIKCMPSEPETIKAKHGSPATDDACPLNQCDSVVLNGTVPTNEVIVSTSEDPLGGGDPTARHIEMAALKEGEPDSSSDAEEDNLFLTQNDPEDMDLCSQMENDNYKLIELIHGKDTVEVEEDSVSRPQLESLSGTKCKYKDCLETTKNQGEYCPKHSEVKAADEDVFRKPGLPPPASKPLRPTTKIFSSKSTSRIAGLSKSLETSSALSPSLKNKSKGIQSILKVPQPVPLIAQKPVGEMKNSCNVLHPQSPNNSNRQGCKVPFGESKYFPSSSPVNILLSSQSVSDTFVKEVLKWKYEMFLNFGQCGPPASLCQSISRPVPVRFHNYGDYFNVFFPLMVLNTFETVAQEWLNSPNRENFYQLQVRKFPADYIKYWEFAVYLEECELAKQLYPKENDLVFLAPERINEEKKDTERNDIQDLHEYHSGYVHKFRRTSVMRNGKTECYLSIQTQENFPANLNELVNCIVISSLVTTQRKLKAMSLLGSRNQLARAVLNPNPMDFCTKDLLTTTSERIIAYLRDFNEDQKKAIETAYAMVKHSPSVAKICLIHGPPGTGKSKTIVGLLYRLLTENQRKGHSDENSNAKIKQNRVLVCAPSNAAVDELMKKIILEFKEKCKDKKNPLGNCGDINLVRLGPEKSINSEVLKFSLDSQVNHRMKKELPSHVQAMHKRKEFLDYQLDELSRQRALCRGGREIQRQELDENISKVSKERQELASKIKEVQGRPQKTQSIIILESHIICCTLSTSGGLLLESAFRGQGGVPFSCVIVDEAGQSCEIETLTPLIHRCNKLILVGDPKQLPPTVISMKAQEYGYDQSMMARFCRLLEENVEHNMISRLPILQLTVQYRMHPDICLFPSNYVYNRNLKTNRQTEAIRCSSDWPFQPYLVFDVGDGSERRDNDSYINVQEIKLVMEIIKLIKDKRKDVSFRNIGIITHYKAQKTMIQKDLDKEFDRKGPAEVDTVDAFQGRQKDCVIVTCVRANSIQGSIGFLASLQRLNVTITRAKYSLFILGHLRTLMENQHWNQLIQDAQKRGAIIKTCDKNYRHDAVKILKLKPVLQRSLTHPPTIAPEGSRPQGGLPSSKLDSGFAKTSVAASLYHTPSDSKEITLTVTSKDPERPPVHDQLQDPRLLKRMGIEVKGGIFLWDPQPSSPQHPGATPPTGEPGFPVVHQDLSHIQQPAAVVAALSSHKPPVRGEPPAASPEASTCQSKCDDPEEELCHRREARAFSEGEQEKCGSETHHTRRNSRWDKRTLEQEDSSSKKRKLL
UniProt P49736: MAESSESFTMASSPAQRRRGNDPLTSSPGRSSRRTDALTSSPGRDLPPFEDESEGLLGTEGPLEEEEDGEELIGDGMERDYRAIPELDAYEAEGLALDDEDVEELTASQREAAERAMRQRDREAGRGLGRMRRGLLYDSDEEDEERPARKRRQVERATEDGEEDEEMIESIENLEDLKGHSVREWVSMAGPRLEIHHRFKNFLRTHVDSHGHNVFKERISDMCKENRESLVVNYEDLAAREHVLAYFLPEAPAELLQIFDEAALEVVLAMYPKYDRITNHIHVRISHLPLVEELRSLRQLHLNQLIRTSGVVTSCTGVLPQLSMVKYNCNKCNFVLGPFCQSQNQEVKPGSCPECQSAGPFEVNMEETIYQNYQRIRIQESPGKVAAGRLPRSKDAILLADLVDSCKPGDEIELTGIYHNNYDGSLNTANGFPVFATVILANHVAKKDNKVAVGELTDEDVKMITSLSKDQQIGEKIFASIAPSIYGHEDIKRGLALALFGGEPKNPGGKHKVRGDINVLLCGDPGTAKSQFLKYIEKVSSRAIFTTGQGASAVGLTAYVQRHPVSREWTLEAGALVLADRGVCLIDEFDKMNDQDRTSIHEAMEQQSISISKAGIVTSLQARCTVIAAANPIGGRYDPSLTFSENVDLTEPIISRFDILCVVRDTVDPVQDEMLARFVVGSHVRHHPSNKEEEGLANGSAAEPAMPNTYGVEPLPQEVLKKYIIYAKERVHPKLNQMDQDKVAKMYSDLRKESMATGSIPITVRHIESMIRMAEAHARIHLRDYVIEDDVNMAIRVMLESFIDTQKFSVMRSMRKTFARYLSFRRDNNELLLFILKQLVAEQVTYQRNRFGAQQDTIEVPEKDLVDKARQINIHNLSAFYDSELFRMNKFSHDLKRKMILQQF

Assay [1] deals with Senataxin (human (endogenous in U2OS)) (UniProt Q7Z333). Nature of the assay: co-IP; Senataxin immunoprecipitated; C16orf72 detected in the immunoprecipitate.
Another assay deals with MCM2 (UniProt P49736). Nature of the assay: proximity ligation; Duolink proximity ligation assay on methanol-fixed cells with antibodies to C16orf72 and MCM2.

Results are given in words; binding and its absence hold for the method and conditions named. In cells and extracts the contact can be indirect. Some results given as binding are weak or reduced against the parent protein; the word gives no strength. For part of these data: Sequences can lack the tags named with a protein.

For the molecule Senataxin (from UniProt Q7Z333 1-2677), in the assay with HA-Flag-C16orf72, the binding entry is “binds”.

B1: C16orf72 (protein, UniProt Q14CZ0 1-275)
chain: MEERKEEGEAEIQEHGPEHWFSKWERQCLAEAEQDEQLPPELQEEAAAAAQPEHKQQKLWHLFQNSATAVAQLYKDRVCQQPGLSLWVPFQNAATAVTNLYKESVDTHQRSFDIGIQIGYQRRNKDVLAWVKKRRRTIRREDLISFLCGKVPPPRNSRAPPRLTVVSPNRATSTETSSSVETDLQPFREAIALHGLSGAMASISVRSSTPGSPTHVSSGSNASRRRNGLHDVDLNTFISEEMALHLDNGGTRKRTSAQCGDVITDSPTHKRNRMI
For B1, the figures for the binding result (in assay [1]; with MCM2) were “binds” and “no binding”, respectively.

Source of the values: publication PMC10435583.
